Assay results taken from publication PMC5494507, “γ‐Secretase inhibitors in cancer clinical trials are pharmacologically and functionally distinct” (EMBO Molecular Medicine, 2017).

Legend:
Design in all cases: species or system human
Conditions in all cases: rank among the six GSIs, number in brackets
cNOTCH1sub = assay: Cell-based γ-secretase cleavage assay, cNOTCH1sub in H4 cells (Aβ-like peptide ELISA)
Experimental: (§1) Using these cell‐based γ‐secretase cleavage assays, we systematically investigated the substrate inhibition profile of BMS‐906024, MK‐0752, PF‐308414, RO4929097, Semagacestat, and DAPT. We treated H4 cells stably expressing cNOTCH1‐4sub with 4 pM to 10 μM of GSIs (Fig 5A and Table 2) and measured the Aβ‐like peptide secreted into the media.
(§2) For the cell‐based assay, all substrates contain a human NOTCH4 signal peptide sequence ([…]), amyloid β peptide (Aβ1–25/K16A) epitope tag followed by the juxtamembrane region (JMD) of the given substrate and a FLAG tag ([…]) at the COOH‐terminal. K16A mutant was created to decrease potential α‐secretase cleavage. The cDNAs were generated by gene synthesis conducted by Genscript. A schematic representation of the substrates is provided in Fig 4A, and sequences of the cDNAs and the proteins are provided in Appendix Fig S6. For clarity, these substrates are referred to as cell‐based assay substrates (e.g., NOTCH1 is cNOTCH1sub). Substrate cDNAs were cloned into pCDNA3.1 (Invitrogen, Carlsbad, CA, USA) for expression in H4 cells (ATCC, Manassas, VA).
(§3) H4 cells were cultured in Opti‐mem media (Thermo‐Fisher) supplemented with Hyclone 6% fetal bovine serum (GE, Logan, Utah, USA) and 1% penicillin/streptomycin (Life Technologies, Grand Island, NY, USA). pCDNA3.1 plasmids containing the substrate cDNAs were transfected into H4 cells using FuGENE HD reagent (Madison, WI, USA). Stable cell lines were established using G418 selection. […] Cells and conditioned media were used for WB, IP, and ELISA.
(§4) Sandwich ELISAs used for Aβ detection were performed as previously described (Murphy et al, 1999; Ran et al, 2014). Briefly, Aβ and Aβ‐like peptides in conditioned media were captured with Ab5 antibody and detected with horseradish peroxidase labeled mAb 4G8 (Biolegend). Synthetic Aβ1‐40 was used as standard. All ELISAs were developed with TMB substrate (KPL, Gaithersburg, Maryland, USA). Bis‐Tris precast gels (Biorad, Hercules, CA, USA) were used for all SDS–PAGE. Monoclonal anti‐FLAG M2 antibody (Sigma) and Aβ1‐16 antibody 6E10 (Covance) were used for Western blotting at 1:1,000 dilution. Anti‐CD74 In‐1 antibody (BD Bioscience, San Jose, CA, USA) was used for A20 cell lysate Western blotting at dilution of 1:1,000. MDA‐MB‐231 cell extracts were prepared by lysing cells in RIPA buffer containing protease and phosphatase inhibitors. The lysates were kept on ice for 30 min and vortexed every 10 min, and then centrifuged at 4°C for 10 min at 1,000 g. The supernatants were collected, and protein concentrations were determined by Bradford Assay. Pan‐NOTCH1 antibody (C‐20) (Santa Cruz Biotechnology) and cleaved NOTCH1 (Val1744) antibody ([…]) were used at 1:500 and 1:100 dilution in the test of endogenous NOTCH1 inhibition with β‐actin expression used as loading control. β‐actin antibody was used at 1:1,000 dilution (Sigma). Band intensities normalized for actin using densitometry analysis with ImageJ Software (NIH, USA).

cNOTCH3sub = assay: Cell-based γ-secretase cleavage assay, cNOTCH3sub in H4 cells (Aβ-like peptide ELISA)
Experimental: as §1, §2, §3, §4

cNOTCH4sub = assay: Cell-based γ-secretase cleavage assay, cNOTCH4sub in H4 cells (Aβ-like peptide ELISA)
Experimental: as §1, §2, §3, §4

Structure (SMILES) | rank order of inhibition of cNOTCH1sub (cNOTCH1sub) | rank order of inhibition of cNOTCH3sub (cNOTCH3sub) | rank order of inhibition of cNOTCH4sub (cNOTCH4sub)
CN1C(=O)[C@@H](NC(=O)[C@H](CCC(F)(F)F)[C@H](CCC(F)(F)F)C(N)=O)N=C(c2ccccc2)c2ccccc21 [BMS‐906024] | [1] ^d | [1] | [1]
C[C@H](NC(=O)Cc1cc(F)cc(F)c1)C(=O)N[C@H](C(=O)OC(C)(C)C)c1ccccc1 [DAPT] | [4] | [6] | [5]
O=C(O)CC[C@H]1CC[C@@](c2cc(F)ccc2F)(S(=O)(=O)c2ccc(Cl)cc2)CC1 [MK‐0752] | [6] | [4] | [6]
CCC[C@H](N[C@H]1CCc2cc(F)cc(F)c2C1)C(=O)Nc1cn(C(C)(C)CNCC(C)(C)C)cn1 [PF‐3084014] | [3] | [2] | [2]
CC(C)(C(=O)NCC(F)(F)C(F)(F)F)C(=O)N[C@@H]1C(=O)Nc2ccccc2-c2ccccc21 [RO4929097] | [2] | [3] | [3]
CC(C)[C@H](O)C(=O)N[C@@H](C)C(=O)N[C@@H]1C(=O)N(C)CCc2ccccc21 [Semagacestat] | [5] | [5] | [4]
